Experiment [1] has as its target HA-Hsp90β^S226A/S255A (human) (UniProt P08238). Kind of experiment: affinity purification with mass spectrometry; SILAC duplex; anti-HA co-IP as in the label-free experiment, WT from heavy cells and AA from light cells pooled after elution, four replicates, H/L ratios aligned on Hsp90β.
Experiment [2] has the same target. Kind of experiment: affinity purification with mass spectrometry; label-free; anti-HA co-IP from lysates of transfected HEK293T-Hsp90βKO19 cells (1% NP40, 20 mM HEPES pH 7.5, 50 mM KCl, 5 mM MgCl2), 4 °C overnight, protein G agarose, LC-MS/MS; untagged WT Hsp90β as negative control; done twice with 3 replicates each.

By UniProt entry, the sequences of proteins in these tests, tags left out.
UniProt P25685: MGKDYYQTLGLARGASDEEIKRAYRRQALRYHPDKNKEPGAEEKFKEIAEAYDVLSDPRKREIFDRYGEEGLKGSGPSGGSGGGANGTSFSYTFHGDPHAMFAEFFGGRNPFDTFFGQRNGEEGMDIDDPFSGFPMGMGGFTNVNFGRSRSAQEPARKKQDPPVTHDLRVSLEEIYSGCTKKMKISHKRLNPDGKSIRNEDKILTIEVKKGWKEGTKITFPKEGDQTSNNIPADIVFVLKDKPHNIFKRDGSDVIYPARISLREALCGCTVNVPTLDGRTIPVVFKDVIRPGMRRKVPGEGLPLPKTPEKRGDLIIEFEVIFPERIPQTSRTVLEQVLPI

This note sets out measurements from article PMC8304327.

No constants are given. Whether binding was seen depends on the method and setting. Binding seen in cells or lysates may run through a third protein. These calls come from enrichment with a bait or labelling near it, and not all partners need be listed.

As to “Hsp40 (DNAJB1) (from UniProt P25685 1-340)”, the binding entry in experiment [1] and in experiment [2] was “binds” in each case.
